{
  "source": "PubChem BioAssay AID445",
  "about": "(National Center for Advancing Translational Sciences (NCATS), 2006)",
  "note": "The list shows a part of the results. The main result of the screen is listed elsewhere. These columns were measured beside it and carry no call. The list favours compounds with an active or inconclusive main result. The note in brackets gives the kind of curve behind each potency; many fits are weak.",
  "data": [
    {"assay": "IkB Signaling", "settings": "ABC-DLBCL IkBa-CBG/CBR dual luciferase ratio (green luciferase fused to IkBa over red control in OCI-Ly3 lymphoma cells), 4 h; measured here: control luc red channel unless noted", "summary_of_the_method": "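Curves were fitted separately to fusion (green), unfused (red) and ratio luminescence, then classed by r2, magnitude and activity. Cells: OCI-Ly3, 4 h compound plus doxycycline at 37C; 10 uM MG-132 defined full response.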", "values": [
      {"smiles": "CCCc1nnc(NC(=O)C2CCCO2)s1", "note": "(stereo not drawn)", "AC50": "39.8 µM [falling, single point]"},
      {"smiles": "N#CC1=C(SCC(=O)c2cc3ccccc3oc2=O)NC(=O)C(C#N)C12CCCC2", "note": "(stereo not drawn)", "AC50": "3.98 µM [falling, full curve]"},
      {"smiles": "Cc1ccc(S(=O)(=O)c2cn(CC(=O)Nc3ccccc3C)c3cc4c(cc3c2=O)OCO4)cc1", "AC50": "39.8 µM [falling, single point]"},
      {"smiles": "CC/C=C1/OC(=O)c2ccccc21", "AC50": "12.6 µM [rising, full curve, poor fit]"},
      {"smiles": "Cc1ccc(Cl)cc1NC(=O)C1CCCN(S(=O)(=O)c2cccc3cccnc23)C1", "note": "(stereo not drawn)", "AC50": "31.6 µM [falling, single point]"},
      {"smiles": "Cc1ccccc1NC(=O)c1c(NC(=O)c2ccco2)sc2c1CCC(C(C)(C)C)C2", "note": "(stereo not drawn)", "AC50": "12.6 µM [falling, partial curve, poor fit]"},
      {"smiles": "COc1ccc(N2C(=O)CS(=O)(=O)C23C(=O)N(Cc2ccc(F)cc2)c2ccc(C)cc23)cc1", "note": "(stereo not drawn)", "AC50": "2.51 µM [falling, partial curve]"},
      {"smiles": "COc1ccccc1CNC(=O)CSc1nc2nc(C)c(Cc3ccccc3Cl)c(C)n2n1", "AC50": "12.6 µM [falling, partial curve]"},
      {"smiles": "COc1ccc(CCNC(=O)c2cccc(-n3cnc4cccnc43)c2C)cc1OC", "AC50": "39.8 µM [falling, single point]"},
      {"smiles": "Cc1noc(C)c1S(=O)(=O)N1CCCC(C(=O)Nc2ccc(Cl)cn2)C1", "note": "(stereo not drawn)", "AC50": "15.8 µM [falling, partial curve]"},
      {"smiles": "COc1cc(C(Nc2ccccn2)c2ccc3ccc(C)nc3c2O)cc(OC)c1O", "note": "(stereo not drawn)", "AC50": "7.94 µM [falling, partial curve]"},
      {"smiles": "CCOC(=O)c1c(S(=O)(=O)N2CCCC(C(=O)Nc3cccc(C#N)c3)C2)c(C)n(C)c1C", "note": "(stereo not drawn)", "AC50": "5.01 µM [rising, partial curve]"},
      {"smiles": "COC(=O)c1ccccc1NC(=O)c1ccc(F)cc1", "AC50": "39.8 µM [falling, single point]"},
      {"smiles": "Cc1ccccc1CNC(=O)c1cccc(NC(=O)N2CCSc3ncccc32)c1", "AC50": "25.1 µM [falling, partial curve]"},
      {"smiles": "Cc1ccc(-n2nc(C)c3c2OC(N)=C(C#N)C3c2ccoc2)cc1", "note": "(stereo not drawn)", "AC50": "12.6 µM [falling, partial curve]"},
      {"smiles": "Cc1cnc(NC(=O)CN2CCN(c3ccccn3)CC2)s1", "AC50": "7.94 µM [falling, partial curve]"},
      {"smiles": "COc1cccc(NS(=O)(=O)c2ccc3c(c2)[C@H]2C=CC[C@H]2[C@@H](c2ccccc2Cl)N3)c1", "AC50": "7.94 µM [falling, full curve]"},
      {"smiles": "Cc1cccn2c(Nc3ccccc3)c(-c3cccs3)nc12", "AC50": "39.8 µM [falling, single point]"}
    ]}
  ]
}
